According to PubChem BioAssay AID2685 (National Center for Advancing Translational Sciences (NCATS), 2010):
Some of the results follow. Further columns of the screen follow, without active or inactive calls. Most of these compounds were active or inconclusive in the main read-out, so they are no random draw. The note in brackets gives the kind of curve behind each potency; many fits are weak.

Test: qHTS Assay for Lipid Storage Modulators in Drosophila S3 Cells;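 on cell number change: cells counted by Cell Tracker Red CMTPX staining in the red channel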
Details: BODIPY lipid droplet fluorescence, 18-24 h; for cell number change: measured here: cell count max response, cells fed with added oleic acid
Method in brief: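 Laser-scanning cytometry quantifies lipid droplet accumulation (500–530 nm total intensity; droplet/cell object ratio) in oleic acid-fed (400 uM added) Drosophila S3 cells treated with a concentration series. 20 uM Triacsin C defined 100% inhibition.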

[1] = measured here: lipid fluorescence (Fed channel) AC50, cells fed with added oleic acid
[2] = measured here: cell number channel AC50, cells fed with added oleic acid

| SMILES | cell number change | AC50 [1] | AC50 [2] |
| --- | --- | --- | --- |
| O=C(O)c1ccc(S(=O)(=O)NCC2CCCCC2)cc1 | -7.91% | 6.51 µM [rising, single point] |  |
| COc1ccc(C2N=C(N)N=C(N)N2c2ccccc2)cc1OC (stereo not given) | 2.78% |  | 0.0259 µM [rising, full curve, poor fit] |
| COc1cc(OC)cc(C(=O)NNC(=O)c2ccc3ccccc3n2)c1 | -8.03% |  |  |
| Cc1ccc(Cl)cc1N1CCN(S(=O)(=O)c2ccc3[nH]c(=O)ccc3c2)CC1 | -1.44% | 16.4 µM [falling, single point] |  |
| COc1ccc(N(CC(=O)NCc2ccc(Cl)cc2)S(=O)(=O)c2ccccc2[N+](=O)[O-])c(OC)c1 | -16.1% | 20.6 µM [falling, partial curve, poor fit] |  |
| Cc1cccc(NC(=O)CN(C)C(=O)C2CCCC2)c1C | 5.06% | 5.17 µM [rising, full curve, poor fit] |  |
| Cc1cc(C)c2nc(N3CCCC(C(=O)NCCCN4CCOCC4)C3)sc2c1 (stereo not given) | 49.9% |  | 9.2 µM [rising, partial curve] |
| Cc1cc(C)c(NC(=O)Cn2nnc(C(=O)NCc3ccco3)c2N)c(C)c1 | 67.3% | 16.4 µM [rising, partial curve] | 10.3 µM [rising, partial curve] |
| Cc1cccc(C)c1NC(=O)CN(C)C(=O)CCc1nc2sc3c(c2c(=O)[nH]1)CCCC3 | 3.89% |  |  |
| Cc1noc(C)c1COC(=O)COc1cccc2c1OC(C)(C)C2 | 1.82% |  |  |
| CCOc1cccc(OCCOCCn2cnc3ccccc3c2=O)c1 | 100% |  | 23.1 µM [rising, partial curve] |
| O=C(CSc1nc2ccccc2s1)Nc1ccc(N2CCOCC2)c(Cl)c1 | -21.2% | 16.4 µM [falling, single point] |  |
| c1ccc(SCCCCNC2CCCC2)cc1 | 88.3% |  | 3.66 µM [rising, full curve, poor fit] |
| CC(=O)c1c(C)[nH]c(C(=O)NCCc2ccccc2)c1C | -10.3% | 0.00517 µM [rising, full curve, poor fit] |  |
| Cc1ccccc1OCCn1c(C)nc2ccccc21 | -25.5% |  |  |
| CC(C)NC[C@@H](O)COc1ccc(CC(N)=O)cc1 | -39.4% | 29.1 µM [falling, single point] | 29.1 µM [falling, single point] |
| Cc1ccccc1-c1nnc(-c2ccccc2)o1 | -34.9% | 29.1 µM [falling, single point] | 32.6 µM [falling, single point] |
| O=C(Nc1ccc(F)cc1)C1CCN(C(=O)NCc2ccccc2)CC1 | 7.98% |  |  |
| CC(NC(=O)c1ccc(Cl)cc1Cl)C(c1ccccc1)N1CCOCC1 (stereo not given) | 0.611% | 23.1 µM [rising, single point] |  |
| Fc1ccc(NC(=S)Nc2cccnc2)c(F)c1F | 44.5% | 29.1 µM [rising, single point] | 29.1 µM [rising, single point] |

| SMILES | cell number change | AC50 [1] | AC50 [2] |
| --- | --- | --- | --- |
| O=C(CNc1cccc(C(F)(F)F)c1)N/N=C/c1cn(-c2ccccc2)nc1-c1ccccc1 | -59.6% | 29.1 µM [falling, single point] | 32.6 µM [falling, single point] |
| CC[C@@]12C(=O)N(c3cccc(Cl)c3)C(=O)N1[C@H](c1cccc(C)c1)[C@@H]1C(=O)N(Cc3ccccc3)C(=O)[C@@H]12 | 9.51% | 2.91 µM [falling, single point] |  |
| COc1ccc(Cc2nc3ccc(C(=O)NCCc4ccccn4)cc3o2)cc1OC | -30.2% | 0.13 µM [falling, full curve, poor fit] | 0.517 µM [falling, full curve, poor fit] |
| Cc1cccc(NS(=O)(=O)c2cc(C(=O)N3CCCCCC3)ccc2C)c1 | 5.82% |  |  |
| Cc1ccnc(NCn2nnc3ccccc32)c1 | 0.977% | 14.6 µM [falling, partial curve, poor fit] |  |
| O=C(CSc1nnc(-c2ccccc2)o1)OCc1ccccc1 | 2.38% |  |  |
| O=C(CCS(=O)(=O)c1ccc(Cl)cc1)Nc1ccc(F)cc1 | -9.15% | 0.58 µM [rising, single point] |  |
| O=C(CSC(=S)N1CCCC1)Nc1ccc(Br)cc1Cl | 80% |  | 29.1 µM [rising, single point] |
| CCOc1cccc2cc(C(=O)NCc3ccccc3)c(=N)oc12 | 25.6% | 10.3 µM [rising, partial curve, poor fit] |  |
| O=C(COC(=O)c1cc(-c2ccc(Cl)s2)nc2ccccc12)NCc1ccco1 | -10.7% |  | 0.58 µM [rising, full curve] |
| CCOC(=O)c1c(NC(=O)C2CCCO2)sc(C(N)=O)c1C (stereo not given) |  |  | 4.11 µM [rising, partial curve] |
| O=C(NCCCN1CCCC1)Nc1ccc(F)cc1 | 8.11% |  | 0.731 µM [rising, single point] |
| CCNc1cc(N2CCCC2)ccc1[N+](=O)[O-] | -22% | 6.51 µM [rising, partial curve] | 6.51 µM [rising, single point] |
| Clc1ccccc1CN1CCN(/N=C/c2ccncc2)CC1 | -23.5% | 29.1 µM [falling, single point] |  |
| Cc1cc(Cl)c(S(=O)(=O)N2CCCC2)cc1OCC(N)=O | -74% | 20.6 µM [falling, partial curve, poor fit] | 20.6 µM [falling, partial curve] |
| CCCCNC(=O)c1cccc(C(=O)NCCCC)c1 | -5.66% | 29.1 µM [falling, single point] |  |
| O=C(COC(=O)c1ccc2c(c1)OCO2)NCc1ccc2c(c1)OCO2 | 62.9% | 23.1 µM [rising, partial curve] | 25.9 µM [rising, single point] |
| O=c1c2ccccc2nc(-c2ccc(Cl)c(Cl)c2)n1O | 16.1% | 1.3 µM [falling, partial curve] |  |
| CC(=O)Nc1ccc(C(=O)CSc2nccc(=O)[nH]2)cc1 | -73.3% | 23.1 µM [falling, partial curve] | 25.9 µM [falling, partial curve] |

Of the compounds above, these contain fluorine.

| SMILES | cell number change | AC50 [1] | AC50 [2] |
| --- | --- | --- | --- |
| O=C(Nc1ccc(F)cc1)C1CCN(C(=O)NCc2ccccc2)CC1 | 7.98% |  |  |
| Fc1ccc(NC(=S)Nc2cccnc2)c(F)c1F | 44.5% | 29.1 µM [rising, single point] | 29.1 µM [rising, single point] |
| O=C(CNc1cccc(C(F)(F)F)c1)N/N=C/c1cn(-c2ccccc2)nc1-c1ccccc1 | -59.6% | 29.1 µM [falling, single point] | 32.6 µM [falling, single point] |
| O=C(CCS(=O)(=O)c1ccc(Cl)cc1)Nc1ccc(F)cc1 | -9.15% | 0.58 µM [rising, single point] |  |
| O=C(NCCCN1CCCC1)Nc1ccc(F)cc1 | 8.11% |  | 0.731 µM [rising, single point] |
